We go through 1 molecule from ChEMBL document CHEMBL4138206, “Acovenoside A Induces Mitotic Catastrophe Followed by Apoptosis in Non-Small-Cell Lung Cancer Cells” (J Nat Prod, 2017).

This assay deals with A549. Put plainly: Cytotoxicity against human A549 cells assessed as reduction in cell viability after 48 hrs by XTT assay. In kind it is functional, cell-based. The settings on record: A549, 48 h. In general terms: Tetrazolium dyes change colour on reduction, which living cells bring about.

Structures are written as SMILES.

For `COc1cccc2c1C(=O)c1c(O)c3c(c(O)c1C2=O)C[C@@](O)(C(=O)CO)C[C@@H]3O[C@H]1C[C@H](N)[C@H](O)[C@H](C)O1` [DOXORUBICIN], the IC50 was found to be 426 nM.

The IC50 is the midpoint of a concentration-inhibition curve.
